# Assay results published in PubChem BioAssay AID1347131 (National Center for Advancing Translational Sciences (NCATS), 2019).
# Out of some 410,000 compounds screened, about 2,000 (0.49%) were called active. Inconclusive results, whose numbers are uncertain, are shown with a selection of clear calls. Calls follow the shape of the full dose curve; tested in HEK293 reporter line. Potencies of inconclusive entries are doubtful fits and often do not repeat.
# Assay: qHTS Assay for Foot and Mouth Disease Virus Antivirals: Primary Screen against the MLPCN compound library; also: nearly all actives have a fitted effect of over 55% in size
# Conditions: FMDV antiviral cell-based qHTS; activity, negative = inhibition: at 57.9 µM (top of the series)
# Potency is read from the fitted curve at half-maximal effect.
Compound,Potency,"activity, negative = inhibition"
CCN1CCC(O)(/C=C/c2ccc(C)cc2)C(C(=O)/C=C/c2ccc(C)cc2)C1 (configuration not stated),"inconclusive: 28.2 µM [inhibitor, partial curve, poor fit]",
CC1(C)CC(=O)C=C(c2ccc(COC(=O)c3cc(F)cc(F)c3)cc2)C1=O,,inconclusive: -33.2% [inhibitor]
CCOc1ccc(OCc2cccc(C(=O)N3CCCCCC3)c2)cc1,"inconclusive: 15.8 µM [inhibitor, single point]",
O=c1c2ccccc2c(-c2ccc(O)cc2)nn1-c1cccc(C(F)(F)F)c1,"inconclusive: 39.8 µM [inhibitor, partial curve, poor fit]",
COc1ccc2c(CN3CCN(S(=O)(=O)c4cccs4)CC3)cc(=O)oc2c1,"inconclusive: 39.8 µM [inhibitor, partial curve, poor fit]",
Cc1ccc(-n2cnc3scc(-c4cccs4)c3c2=O)cc1,"inconclusive: 3.98 µM [inhibitor, full curve]",
CC(NC(=O)c1ccc(C#N)cc1)C1CC2CCC1C2 (configuration not stated),"inconclusive: 39.8 µM [inhibitor, partial curve, poor fit]",
CN(C)CCC(=O)N1C/C(=C/c2ccccc2)C(=O)/C(=C\c2ccccc2)C1,"inconclusive: 8.91 µM [inhibitor, full curve, poor fit]",
Cc1nn(-c2ccccc2)c(C)c1NC(=O)COc1ccc(F)cc1Cl,"inconclusive: 20 µM [inhibitor, partial curve, poor fit]",
CCOC(=O)C1=C(c2ccccc2)ON(C)C1c1ccccc1 (configuration not stated),"inconclusive: 14.1 µM [inhibitor, partial curve, poor fit]",
COc1cc(C2(c3ccc(O)c(OC)c3)C(=O)N(C)c3ccc(Br)cc32)ccc1O,"inconclusive: 22.4 µM [inhibitor, partial curve, poor fit]",
O=C1C(=C(c2ccccc2)N2CCOCC2)Cc2ccccc21,"inconclusive: 8.91 µM [inhibitor, full curve, poor fit]",
O=C(NNC(=O)c1ccc2c(=O)n3c(nc2c1)CCC3)c1cccc(Cl)c1,inactive,
COc1ccc2oc(C(=O)N(C)CCOc3ccc(Cl)cc3)c(C)c2c1,"inconclusive: 22.4 µM [inhibitor, single point]",
CCOc1ccc(CN(C)C(=O)c2ccc(S(=O)(=O)N(C)c3ccccc3OC)cc2)cc1,"inconclusive: 22.4 µM [inhibitor, partial curve, poor fit]",
CC(Oc1cccnc1[N+](=O)[O-])C(=O)Nc1ccc(Cl)cn1 (configuration not stated),"inconclusive: 1 µM [inhibitor, full curve]",
O=C(Nc1nc2c(F)cccc2s1)c1ccc2c(c1)OCCO2,"inconclusive: 22.4 µM [inhibitor, single point]",
CC(C)(C)c1ccc(NC(=O)N2CCCN(c3ccc([N+](=O)[O-])cn3)CC2)cc1,"inconclusive: 31.6 µM [inhibitor, partial curve, poor fit]",
Cn1c2ccccc2c(=O)c2cc(C#CC3(O)CCCCC3)ccc21,"inconclusive: 25.1 µM [inhibitor, partial curve, poor fit]",

# Exported as tab-separated lines: 3 of the compounds above.
Compound	Potency	activity, negative = inhibition
COc1ccc2oc(C(=O)N(C)CCOc3ccc(Cl)cc3)c(C)c2c1	inconclusive: 22.4 µM [inhibitor, single point]	
CCOc1ccc(CN(C)C(=O)c2ccc(S(=O)(=O)N(C)c3ccccc3OC)cc2)cc1	inconclusive: 22.4 µM [inhibitor, partial curve, poor fit]	
CC(Oc1cccnc1[N+](=O)[O-])C(=O)Nc1ccc(Cl)cn1 (configuration not stated)	inconclusive: 1 µM [inhibitor, full curve]	

# Next records

Compound,Potency,"activity, negative = inhibition"
COc1ccc(-n2cc(-c3ccccc3)c3c(N4CC(C)OC(C)C4)ncnc32)cc1 (configuration not stated),"inconclusive: 22.4 µM [inhibitor, partial curve, poor fit]",
COc1ccc(OC)c(CC2C(=O)Nc3ccc(Br)cc32)c1 (configuration not stated),"inconclusive: 12.6 µM [inhibitor, partial curve, poor fit]",
C[C@@H]1CN(Cc2nc(-c3ccc(Cl)cc3)no2)C[C@H](C)O1,"inconclusive: 7.94 µM [inhibitor, partial curve]",
O=C(NCc1ccco1)c1cnn2c1NC(c1ccc(Br)cc1)CC2C(F)(F)F (configuration not stated),"inconclusive: 31.6 µM [inhibitor, partial curve, poor fit]",
CC(C)Cc1cc(C(=O)Nc2cccc(O)c2)no1,"inconclusive: 20 µM [inhibitor, single point]",
Nc1ccc2c(c1)C(=O)C(=O)c1ccccc1-2,"inconclusive: 5.62 µM [inhibitor, full curve, poor fit]",
Cn1c(SCC(=O)N2CCN(S(=O)(=O)c3ccccc3)CC2)nc2ccccc21,"inconclusive: 20 µM [inhibitor, partial curve, poor fit]",
Cc1c(NC(=O)c2cnn3c2NC(c2ccc(Br)cc2)CC3C(F)(F)F)c(=O)n(-c2ccccc2)n1C (configuration not stated),"inconclusive: 35.5 µM [inhibitor, partial curve, poor fit]",
O=S(=O)(Nc1ccc(C(O)(C(F)(F)F)C(F)(F)F)cc1)c1ccc(Cl)c2nonc12,"inconclusive: 35.5 µM [inhibitor, partial curve, poor fit]",
CC(C)c1ccc(S(=O)(=O)N2CCN(C(=O)CCc3nc4ccccc4c(=O)[nH]3)CC2)cc1,"inconclusive: 1.26 µM [inhibitor, full curve]",
Cc1ccccc1OCC(=O)Nc1ccc2nc(SCC(=O)N3CCOCC3)sc2c1,"inconclusive: 28.2 µM [inhibitor, partial curve, poor fit]",
CCNC(=O)Nc1ccc2c(c1)c(=O)n(C)n2CC=C(C)C,"inconclusive: 28.2 µM [inhibitor, partial curve]",
COC(=O)Cc1ccc(NC(=O)c2ccc3c(c2)C(=O)N(CC2CCCO2)C3=O)cc1 (configuration not stated),"inconclusive: 28.2 µM [inhibitor, single point]",
COc1ccccc1N1CCN(C(=O)c2ccc(S(=O)(=O)N3CCCC3)cc2)CC1,,inconclusive: -32.8% [inhibitor]
COC(=O)/C(=C\Nc1ccc(Cl)cc1Cl)NC(=O)c1ccc(OC)cc1,"inconclusive: 14.1 µM [inhibitor, partial curve, poor fit]",
FC(F)Oc1ccc(-c2csc(NNC3=NCCCCC3)n2)cc1,"inconclusive: 28.2 µM [inhibitor, partial curve, poor fit]",
CCN(Cc1ccc2c(c1)OCCO2)C(=O)CSc1nc(C)nc2sc(C)c(C)c12,"inconclusive: 31.6 µM [inhibitor, single point]",
CCCOc1ccc(C2/C(=C(\O)c3c(C)[nH]c(C(=O)OC)c3C)C(=O)C(=O)N2CCN(C)C)cc1 (configuration not stated),"inconclusive: 7.94 µM [inhibitor, partial curve, poor fit]",
COCCOC(=O)c1[nH]c2c(c1C)C(=O)CC(c1cc(OC)ccc1OC)C2 (configuration not stated),"inconclusive: 8.91 µM [inhibitor, partial curve, poor fit]",

Compound,Potency,"activity, negative = inhibition"
O=C(NC(=C(Cl)Cl)S(=O)(=O)c1ccc(Cl)cc1)c1ccccc1,"inconclusive: 28.2 µM [inhibitor, partial curve, poor fit]",
Cc1ccc(-c2nn(-c3ccccc3)cc2/C=N/NC(=O)c2ccc(Br)o2)cc1,"inconclusive: 28.2 µM [inhibitor, partial curve, poor fit]",
O=[N+]([O-])c1ccc(N2CCN(Cc3ccccc3)CC2)c2c1no[n+]2[O-],"inconclusive: 28.2 µM [inhibitor, partial curve, poor fit]",
COc1ccc(CNC(=O)C(C#N)c2nc3ccccc3nc2N2CCCC2)cc1 (configuration not stated),"inconclusive: 14.1 µM [inhibitor, partial curve, poor fit]",
O=C(Nc1nc2ccccc2s1)c1ccc2c(c1)OCO2,active: 14.1 µM,
Cn1c(-c2ccccc2)cc2onc(-c3ccccc3)c2c1=O,active: 8.91 µM,
CC(C)(C)C(=O)Nc1ccc(/C=C/C(=O)c2ccco2)cc1,"inconclusive: 39.8 µM [inhibitor, single point]",
Cc1cccc(C)c1NC(=O)CN(C)C(=O)Cc1cccc(C(F)(F)F)c1,"inconclusive: 15.8 µM [inhibitor, partial curve, poor fit]",
CCN1/C(=C/c2ccc3cccc(C)c3[n+]2CC)Sc2ccccc21,"inconclusive: 7.94 µM [inhibitor, partial curve, poor fit]",
Fc1ccc(-c2nnc(NC3=NCCCCC3)o2)cc1,"inconclusive: 10 µM [inhibitor, partial curve, poor fit]",
CCOC(=O)c1cc(-c2ccccc2)sc1NC(=O)c1ccc(OC)c(OC)c1,"inconclusive: 35.5 µM [inhibitor, partial curve, poor fit]",
CC(=O)Nc1ccc(-c2csc(Nc3ccc(Cl)cn3)n2)cc1,"inconclusive: 25.1 µM [inhibitor, partial curve, poor fit]",
OCCOCCNc1ncnc2c1cnn2-c1ccc(Cl)cc1,"inconclusive: 20 µM [inhibitor, single point]",
O=C(Nc1cccnc1Cl)c1cc(-c2ccccc2O)on1,"inconclusive: 39.8 µM [inhibitor, single point]",
C=CC[C@@H](CC(=O)OC(C)(C)C)C(=O)OC[C@@H]1CCCN1C(=O)[C@@H](CC=C)CC(=O)N[C@@H](CO)Cc1ccccc1,inactive,
Cc1ccc(C)c(NS(=O)(=O)c2ccc3c4c(cccc24)C(=O)N3)c1,"inconclusive: 39.8 µM [inhibitor, single point]",
O=c1[nH]c2ccccc2n1C1CCN(C(CCc2ccccc2)c2nnnn2Cc2ccccc2)CC1 (configuration not stated),"inconclusive: 35.5 µM [inhibitor, single point]",
Fc1ccc(CN2CCN3CCCC3C2C2CCCCC2)cc1F (configuration not stated),inactive,
CCOc1cc(C=C(C#N)C#N)ccc1Oc1ccc([N+](=O)[O-])cn1,,inconclusive: -36.4% [inhibitor]
